Some of these results come from one statement about several compounds together.
The substances below were run on B. burgdorferi (assay: Incorporation of fluorescent (NBD-labelled) phospholipid analogs). Details: phospholipid from the medium; 25 μM NBD-labelled analogues in dBSK.
Format: cell-based, Borrelia burgdorferi B31

| Substance | time to entry into the membrane |
| --- | --- |
| phosphatidylserine [PS] | ≤ 1 h |
| phosphatidic acid [PA] | ≤ 1 h |
| phosphatidylethanolamine [PE] | ≤ 1 h |
